Reference: PubChem BioAssay AID590 (National Center for Advancing Translational Sciences (NCATS), 2007)
“And” between values parts separate entries of the source, which are not always exact repeats. Equal values may be shown once. Screen size: about 59,000 compounds; about 6,500 (11%) were called active. The inconclusive results got no clear call from the source; some entries with a clear call stand among them for comparison. Rule as the data show it: active = max dye-equivalent concentration above about 10 nM; inconclusive = mostly about 1.1 nM to 9.6 nM; inactive = weaker than that. The source holds several records for some structures; these can differ, active in one and inactive in another.

Experiment: qHTS Assay for Spectroscopic Profiling in A350 Spectral Region
Details: Compound autofluorescence, 340/450 nm, Alexa 350 dye-equivalents; stronger effect = higher value
Description: NIH Molecular Libraries Screening Centers Network [MLSCN]
NIH Chemical Genomics Center [NCGC]
Occasionally, the artifactual effect may originate from the compounds own spectral or other biophysical properties which generally tend to track its assay concentration. Pre-screening/profiling the library with respect to the compounds spectral properties should help one exclude false positives early on. While the most informative fluorescent profiling data set is obtained by performing a full excitation and emission scan of each well by using a monochromator-based plate reader, such an approach is practical only on a very limited scale as scanning each well requires long time. An alternative approach, applied here, is to perform plate reader scans using selected excitation and emission wavelength pairs to generate a multidimensional relational database that correlates compound concentration and the respective relative fluorescence intensity at a given wavelength set. A standard curve of Alexa 350 (A 350) present on each plate as six-point concentration series, was used to compute a normalized fluorescence response, termed dye-equivalent concentration, for each compound at each concentration.
NCGC Assay Protocol Summary:
100 mM Tris buffer, pH 8.0
The wells in columns 1 through 4 of a Kalypsys polypropylene 1536-well compound plate were filled with standard solutions of fluorophore corresponding to the spectral region of interest. Solutions of A 350 were placed in the following wells: I1, J1: 3 mM, I2, J2: 300 uM, I3, J3: 30 uM, I4, J4: zero (DMSO), K1, L1: 3 uM, K2, L2: […], K3, L3: 300 nM, K4, L4: zero (DMSO).
Six uL of buffer were dispensed to 1536-well Greiner black plates. Compounds and dye standards (23 nL) were transferred via Kalypsys PinTool. The plates were incubated for 15 min at room temperature, and then read on ViewLux (Perkin-Elmer) High-throughput CCD imager using 340 nm and 450 nm excitation and emission filter set.
Keywords: NIH Roadmap, MLSCN, MLI, MLSMR, qHTS, NCGC, A350, A-350, Fluorescent Profiling.
In the case of `C=Cn1ccnc1P(=S)(c1ccc(N(C)C)cc1)c1nccn1C=C`, the max dye-equivalent concentration is reported as “inactive”.
For `CCN1C[C@]2(C)CC[C@@H](O)[C@]34[C@@H]5CC6[C@@H](OC)C[C@@](O)([C@H]5[C@@H]6O)[C@@H](C[C@@H]23)[C@H]14`, the max dye-equivalent concentration was inconclusive: 3.2e-09 M.
With `COc1ccc(CN2CCN(Cc3ccccc3)CC2)c(OC)c1` the max dye-equivalent concentration was inconclusive: 1.5e-09 M.
With `O=c1[nH]c(=O)n(Cc2ccc(F)cc2)c(O)c1C=NCC1CCCO1` (configuration not stated) the max dye-equivalent concentration was inconclusive: 8e-09 M.
For `CN(N=O)c1ccc(O)c(O)c1`, the max dye-equivalent concentration was “inactive”.
With `CC1=NCCc2c1[nH]c1cc(O)ccc21` the max dye-equivalent concentration was active: 3.3e-06 M and active: 7.2e-08 M.
For `Oc1ccc([C@H](O)[C@@H]2CCCCN2)cc1O`, the max dye-equivalent concentration was inconclusive: 1.1e-09 M.
In the case of `c1nc(N2CC2)c2cnn([C@@H]3CCCCO3)c2n1`, the max dye-equivalent concentration is reported as inconclusive: 3.2e-09 M.
In the case of `Cc1ccc(Cl)cc1-n1c(O)c(C=NCCCN2CCOCC2)c(=O)[nH]c1=O`, the max dye-equivalent concentration is reported as inconclusive: 8.6e-09 M.
With `Cn1c(C(=O)O)c(CC(=O)N2CCN(Cc3ccccc3)CC2)c2ccccc21` the max dye-equivalent concentration was inconclusive: 1.7e-09 M.
In the case of `O[C@H](CN1CC1)[C@@H](O)CN1CC1`, the max dye-equivalent concentration is reported as “inactive”.
For `CCNCCC1(CC)C(=O)NC(=O)NC1=O`, the max dye-equivalent concentration was “inactive”.
For `CNCCc1ccc(O)c(O)c1`, the max dye-equivalent concentration was “inactive”.
For `O=C(O)CNC(=O)c1ccc([As](=O)(O)O)cc1`, the max dye-equivalent concentration was “inactive”.
In the case of `O=c1cccc2n1C[C@H]1C[C@@H]2CN(CCO)C1`, the max dye-equivalent concentration is reported as “inactive”.
With `S=P(C1CCCCC1)(C1CCCCC1)[C@H](c1cccnc1)N1CCCC1` the max dye-equivalent concentration was “inactive”.
In the case of `CCC(=O)OC1(c2cccc(C)c2)CC(C)N(C)CC1C` (configuration not stated), the max dye-equivalent concentration is reported as inconclusive: 2.8e-09 M.
For `CCN(CC)c1ncnc2c1ncn2[C@@H]1O[C@@H](COP(=O)(O)OP(=O)(O)C(Br)(Br)P(=O)(O)O)[C@H](O)[C@@H]1O`, the max dye-equivalent concentration was “inactive”.
For `Cn1nc(N)c2c1N=P(N1CCOCC1)(N1CCOCC1)N=C2c1ccccc1`, the max dye-equivalent concentration was inconclusive: 3.3e-09 M.
For `CCn1c(=O)cc(SCC(=O)N2CCC3(CC2)OCCO3)c2ccccc21`, the max dye-equivalent concentration was inconclusive: 1.5e-09 M.
For `CCOC(=O)c1c(N)n(CCCOC(=O)c2ccco2)c2nc3ccccc3nc12`, the max dye-equivalent concentration was active: 7.4e-06 M.
For `CC1=C[C@@H]2c3cccc4[nH]cc(c34)C[C@H]2N(C)C1`, the max dye-equivalent concentration was inconclusive: 9.4e-09 M.
For `CN1CCc2cc3c(cc2[C@@H]1[C@@H]1OC(=O)c2c1ccc1c2OCO1)OCO3`, the max dye-equivalent concentration was active: 1.4e-08 M and inconclusive: 3.7e-09 M.
For `CN(C)P(=O)(C(Cl)=C(N1CCCCC1)N1CCCCC1)N(C)C`, the max dye-equivalent concentration was inconclusive: 1.6e-09 M.
For `CN1C[C@H](CNC(=O)OCc2ccccc2)C[C@H]2c3cccc4c3c(cn4C)C[C@@H]21`, the max dye-equivalent concentration was “inactive”.
For `O=c1[nH]c2ccccc2n1CCCN1CCC(n2c(=O)[nH]c3cc(Cl)ccc32)CC1`, the max dye-equivalent concentration was active: 1.8e-08 M and inconclusive: 4.1e-09 M and the outcome was “inactive”.
With `CCOC(=O)c1ccc(NC(=O)c2c(O)[nH]c(=O)[nH]c2=O)cc1` the max dye-equivalent concentration was inconclusive: 5.5e-09 M.
For `COc1ccc(CC2c3cc(OC)c(OC)cc3CCN2C)cc1OC` (configuration not stated), the max dye-equivalent concentration was active: 3.6e-08 M.
For `NC(CCl)=N[C@H]1CN2CCC1CC2`, the max dye-equivalent concentration was “inactive”.
With `CCC1=C(C[C@H]2NCCc3cc(OC)c(OC)cc32)C[C@H]2c3ccccc3CCN2C1` the max dye-equivalent concentration was inconclusive: 3.6e-09 M.
In the case of `CCOC(=O)[C@@H]1[C@@H]2c3ccccc3-c3ccccc3[C@H]2C[C@H]1O`, the max dye-equivalent concentration is reported as “inactive”.
For `CCOC(=O)c1cccc([P+](=O)O)c1`, the max dye-equivalent concentration was inconclusive: 4.7e-09 M.
For `C[C@@]12Cc3cnc(-c4ccccc4)nc3C[C@@H]1CC[C@@H]1[C@H]3CC[C@@](C)(O)[C@]3(C)CC[C@@H]12`, the max dye-equivalent concentration was “inactive”.
With `CC(=NCC1CCCO1)c1c(O)n(-c2ccccc2)c(=O)[nH]c1=O` (configuration not stated) the max dye-equivalent concentration was inconclusive: 1.4e-09 M.
With `C[N+]1=Cc2cc3c(cc2CC1)OCO3` the max dye-equivalent concentration was active: 8.7e-07 M.
In the case of `Cc1cc(S(=O)(=O)NCC(C)C)ccc1OCC(=O)N1CCN(Cc2ccccc2)CC1`, the max dye-equivalent concentration is reported as inconclusive: 1.2e-09 M.
In the case of `CCN=C=NCCCN(C)C`, the max dye-equivalent concentration is reported as “inactive”.
In the case of `CCC(=NC1CC1)c1c(O)n(C2CCCCC2)c(=O)[nH]c1=O`, the max dye-equivalent concentration is reported as “inactive”.
For `Cn1c(O)c(C=NC2C(=O)C3(C)CCC2C3(C)C)c(=O)n(C)c1=O` (configuration not stated), the max dye-equivalent concentration was active: 1.7e-07 M.
In the case of `O=C1C[C@@H]2OCC=C3CN4CC[C@]56c7ccccc7N1[C@H]5[C@@H]2[C@H]3C[C@@H]46`, the max dye-equivalent concentration is reported as “inactive”.
With `Cc1ccc(NC(=[OH+])c2cc3ccccc3cc2O)c(C)c1.Cc1ccc(NC(=[OH+])c2cc3ccccc3cc2O)c(C)c1.[Ni]` the max dye-equivalent concentration was inconclusive: 1.8e-09 M.
